Results are given in words; binding and its absence hold for the method and conditions named. Binding can be weak; no strength is given.
Key:
Test in all cases: description, summary of cross-reaction; assay not named
[1] = molecular target: simian antithrombin (simian)
[2] = molecular target: rabbit antithrombin (rabbit)
[3] = molecular target: rat antithrombin (rat)
[4] = molecular target: canine antithrombin (canine)
[5] = molecular target: porcine antithrombin (porcine)

Measured: binding

B1: KB-AT-007 (VHH)
VHH: QVQLQQSGGGLVQAGGSLRLSCAASGRTFRNYVMGWFRQAPGKDPEFIAGINRSGAITYYGDSVKGRFTISRDNAKNTVSLQMNSLEPEDTAVYYCAAGETTWSIRRDDYDYWGQGTQVTVSS
binds: [1]

B2: KB-AT-001 (VHH)
VHH: QVQLQQSGGDLAQRGGSLRLSCAASGRTFRNYVMGWFRQAPGKDPEFIAGINRSGAITYYGDSVKGRFTISRDNAKNTVSLQMNSLEPEDTAVYYCAAGETTWSIRRDDYDYWGQGTQVTVSS
binds: [2] | [3] | [1]

B3: KB-AT-002 (VHH)
VHH: QVQLVQSGGGLVQAGGSLRLSCAASGRTFNNNGMGWFRQAPGKEREFVAAISWSGGSTYYADSVKGRYIMSRDNAKNTVYLQMNSLKPEDTAVYYCAARTRYNSGLFSRNYDYWGQGTQVTVSS
binds: [4] | [2] | [3] | [1] | [5]

B4: KB-AT-003 (VHH)
VHH: QVQLVQSGGGLVQPGGSLRLSCAASALTFSSRAWAWYRQAPGKQRELVASITGGGTTNYADSVKGRFTISRDNAKNTVYLQMNSLKPEDTAVHYCNGYRYTYAWGQGTQVTVSS
binds: [4] | [3] | [1]

B5: KB-AT-004 (VHH)
VHH: VQLQQSGGGLVQPGGSLRLSCAASAMTFSIRAWAWYRQAPGKQRELVASIGTGDITNYADSVKGRFTISRDNAKNTFYLQMNSLKPEDTAVYYCNGYRSTYAWGQGTQVTVSS
binds: [4] | [3] | [1] | [5]

B6: KB-AT-005 (VHH)
VHH: EVQLVESGGGLVQPGGSLRLSCEASGRDFNDAALGWSRQVPGKARETVAMITSGGVRNYAETVKDRFTISRDNAKNTVYLDMNNLQPDDTGVYYCKADSFKGDYDTSWYLYWGQGTQVTVSS
binds: [1]

B7: KB-AT-006 (VHH)
VHH: QVQLQQSGGGLVQAGGSLRLSCAASGRTFSNNGMGWFRQAPGKEREFVAAISWSSGSTYYADSVKGRYTISRDNAKNTVYLQMNSLKPEDTAVYYCAARTRYNSGYFTRNYDYWGQGTQVTVSS
binds: [4] | [2] | [3] | [1] | [5]

Reference: patent US20190100602A1
